Earlier results as cited in US12234229B2, “Sphingosine kinase inhibitor amidoxime prodrugs” (University of Virginia Patent Foundation, priority 2016, dated 2025).
Some results were stated once for a whole list of compounds, not compound by compound. For at least one compound, name, drawing or mass did not settle the structure.

Target: sphingosine kinases
Conditions: background statement, read-out: typical KI value; cited from earlier work

Row | Molecule | Ki [µM]
1 | CCCCCCCCCCCCCCC[C@H](O)[C@@H](N)CO (racemic) [DL-threo-dihydrosphingosine] | > 10
2 | N,N-dimethylsphingosine | > 10
